In PMC5714384:
No constants are given. Whether binding was seen depends on the method and setting. In cells and extracts the contact can be indirect. A result given as binding can be weak or reduced; the word gives no strength.

T1: full-length Slit (Drosophila (endogenous in embryos)) (UniProt P24014)
T1 sequence: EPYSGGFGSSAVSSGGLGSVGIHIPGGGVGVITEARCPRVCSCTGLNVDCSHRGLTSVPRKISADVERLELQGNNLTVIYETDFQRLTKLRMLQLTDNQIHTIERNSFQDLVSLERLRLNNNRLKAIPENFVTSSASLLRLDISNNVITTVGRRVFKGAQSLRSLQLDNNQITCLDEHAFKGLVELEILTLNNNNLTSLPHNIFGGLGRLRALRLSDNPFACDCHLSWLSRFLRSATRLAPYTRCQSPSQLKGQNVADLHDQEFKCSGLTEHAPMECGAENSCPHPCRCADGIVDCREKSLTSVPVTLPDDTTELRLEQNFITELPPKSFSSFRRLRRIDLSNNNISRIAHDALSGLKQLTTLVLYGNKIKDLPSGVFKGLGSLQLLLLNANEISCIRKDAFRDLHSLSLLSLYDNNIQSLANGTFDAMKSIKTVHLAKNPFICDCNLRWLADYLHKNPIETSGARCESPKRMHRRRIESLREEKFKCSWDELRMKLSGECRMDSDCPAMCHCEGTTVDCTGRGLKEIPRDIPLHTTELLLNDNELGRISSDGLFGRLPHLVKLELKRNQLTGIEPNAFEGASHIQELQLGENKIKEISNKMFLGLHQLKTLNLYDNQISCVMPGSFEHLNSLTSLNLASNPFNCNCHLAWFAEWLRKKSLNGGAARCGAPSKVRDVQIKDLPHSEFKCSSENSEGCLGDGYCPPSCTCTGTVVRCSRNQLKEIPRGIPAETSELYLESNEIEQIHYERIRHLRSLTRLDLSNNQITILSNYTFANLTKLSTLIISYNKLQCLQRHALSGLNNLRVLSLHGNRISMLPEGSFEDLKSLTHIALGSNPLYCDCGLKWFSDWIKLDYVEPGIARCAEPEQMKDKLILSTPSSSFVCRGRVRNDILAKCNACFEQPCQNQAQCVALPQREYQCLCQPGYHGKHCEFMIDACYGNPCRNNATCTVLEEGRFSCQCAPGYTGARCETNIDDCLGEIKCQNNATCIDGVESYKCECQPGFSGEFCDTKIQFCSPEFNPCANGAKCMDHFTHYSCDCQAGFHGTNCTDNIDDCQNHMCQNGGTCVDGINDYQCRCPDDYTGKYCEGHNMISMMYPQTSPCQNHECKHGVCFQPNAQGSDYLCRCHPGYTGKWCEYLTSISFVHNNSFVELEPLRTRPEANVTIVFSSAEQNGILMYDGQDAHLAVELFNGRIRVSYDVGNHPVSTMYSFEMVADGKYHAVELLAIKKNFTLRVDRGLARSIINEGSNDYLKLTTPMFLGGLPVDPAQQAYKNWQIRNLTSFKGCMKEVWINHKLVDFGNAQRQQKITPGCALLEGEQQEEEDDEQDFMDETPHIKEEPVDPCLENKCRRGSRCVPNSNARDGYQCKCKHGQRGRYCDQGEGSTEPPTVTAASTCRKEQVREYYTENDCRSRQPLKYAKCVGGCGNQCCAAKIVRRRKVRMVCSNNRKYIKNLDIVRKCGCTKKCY


Columns and labels:
[1] = molecular target: T1, full-length Slit (Drosophila (endogenous in embryos)); assay: co-IP; immunoprecipitation with anti-Slit-C (recognises full-length Slit too) from extracts of ~16 hpf wild-type and ptc mutant embryos (50 mM HEPES pH 7.2, 100 mM NaCl, 1 mM MgCl2, 1 mM CaCl2, 1% NP-40; overnight at 4 C); blot for Robo1 and Slit
[2] = molecular target: Robo1 (Drosophila (endogenous in embryos)); assay: co-IP; immunoprecipitation with anti-Robo1 monoclonal from extract of ~15-16 hpf wild-type embryos (50 mM HEPES pH 7.2, 100 mM NaCl, 1 mM MgCl2, 1 mM CaCl2, 1% NP-40; overnight at 4 C); blot with anti-Slit-C or anti-Slit-N

| binding [1] | binding [2] | Molecule |
| --- | --- | --- |
| binds | – | Robo1 (Drosophila (endogenous in embryos)) (receptor) |
| – | binds | full-length Slit (ligand, UniProt P24014 37-1504) EPYSGGFGSSAVSSGGLGSVGIHIPGGGVGVITEARCPRVCSCTGLNVDCSHRGLTSVPRKISADVERLELQGNNLTVIYETDFQRLTKLRMLQLTDNQIHTIERNSFQDLVSLERLRLNNNRLKAIPENFVTSSASLLRLDISNNVITTVGRRVFKGAQSLRSLQLDNNQITCLDEHAFKGLVELEILTLNNNNLTSLPHNIFGGLGRLRALRLSDNPFACDCHLSWLSRFLRSATRLAPYTRCQSPSQLKGQNVADLHDQEFKCSGLTEHAPMECGAENSCPHPCRCADGIVDCREKSLTSVPVTLPDDTTELRLEQNFITELPPKSFSSFRRLRRIDLSNNNISRIAHDALSGLKQLTTLVLYGNKIKDLPSGVFKGLGSLQLLLLNANEISCIRKDAFRDLHSLSLLSLYDNNIQSLANGTFDAMKSIKTVHLAKNPFICDCNLRWLADYLHKNPIETSGARCESPKRMHRRRIESLREEKFKCSWDELRMKLSGECRMDSDCPAMCHCEGTTVDCTGRGLKEIPRDIPLHTTELLLNDNELGRISSDGLFGRLPHLVKLELKRNQLTGIEPNAFEGASHIQELQLGENKIKEISNKMFLGLHQLKTLNLYDNQISCVMPGSFEHLNSLTSLNLASNPFNCNCHLAWFAEWLRKKSLNGGAARCGAPSKVRDVQIKDLPHSEFKCSSENSEGCLGDGYCPPSCTCTGTVVRCSRNQLKEIPRGIPAETSELYLESNEIEQIHYERIRHLRSLTRLDLSNNQITILSNYTFANLTKLSTLIISYNKLQCLQRHALSGLNNLRVLSLHGNRISMLPEGSFEDLKSLTHIALGSNPLYCDCGLKWFSDWIKLDYVEPGIARCAEPEQMKDKLILSTPSSSFVCRGRVRNDILAKCNACFEQPCQNQAQCVALPQREYQCLCQPGYHGKHCEFMIDACYGNPCRNNATCTVLEEGRFSCQCAPGYTGARCETNIDDCLGEIKCQNNATCIDGVESYKCECQPGFSGEFCDTKIQFCSPEFNPCANGAKCMDHFTHYSCDCQAGFHGTNCTDNIDDCQNHMCQNGGTCVDGINDYQCRCPDDYTGKYCEGHNMISMMYPQTSPCQNHECKHGVCFQPNAQGSDYLCRCHPGYTGKWCEYLTSISFVHNNSFVELEPLRTRPEANVTIVFSSAEQNGILMYDGQDAHLAVELFNGRIRVSYDVGNHPVSTMYSFEMVADGKYHAVELLAIKKNFTLRVDRGLARSIINEGSNDYLKLTTPMFLGGLPVDPAQQAYKNWQIRNLTSFKGCMKEVWINHKLVDFGNAQRQQKITPGCALLEGEQQEEEDDEQDFMDETPHIKEEPVDPCLENKCRRGSRCVPNSNARDGYQCKCKHGQRGRYCDQGEGSTEPPTVTAASTCRKEQVREYYTENDCRSRQPLKYAKCVGGCGNQCCAAKIVRRRKVRMVCSNNRKYIKNLDIVRKCGCTKKCY |
